Test results as given in paper PMC8184817, “Transmission of light signals from the light-oxygen-voltage core via the hydrophobic region of the β-sheet surface in aureochrome-1” (Scientific Reports, 2021).
Changes are numbered by the printed parent chain. The exact form of at least one protein or probe is not confirmed. For some assays here: A weaker result is weaker than the reference pair of the same experiment. Where a protein sequence is shown, tags need not be part of it. At least one verdict rests on a figure or table, not on a statement of the authors.

Columns and labels:
Assay in all cases: EMSA; QCM
[1] = target: T1, PZ F219V C162S,C182S,F219V (UniProt A8QW55); details: blue light; EMSA: 5% polyacrylamide gel, 25 C, dark or blue light 5 W/m2; recombinant protein; residues 113-348; label: Alexa Fluor647 (EMSA), biotin (QCM)
T1 sequence (looked up): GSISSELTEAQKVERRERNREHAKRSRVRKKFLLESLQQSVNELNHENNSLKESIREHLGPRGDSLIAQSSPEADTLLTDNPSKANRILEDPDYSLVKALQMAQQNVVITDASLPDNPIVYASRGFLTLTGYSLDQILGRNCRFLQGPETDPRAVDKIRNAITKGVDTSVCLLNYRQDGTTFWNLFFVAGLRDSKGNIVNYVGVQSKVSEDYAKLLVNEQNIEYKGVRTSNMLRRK

[2] = target: T2, PZ F299V C162S,C182S,F299V (UniProt A8QW55); details: EMSA: 5% polyacrylamide gel, 25 C, dark or blue light 5 W/m2, recombinant protein, residues 113-348, label: Alexa Fluor647 (EMSA), biotin (QCM)
T2 sequence (looked up): T1 sequence (looked up) with V107F, F187V

[3] = target: T3, PZ L201A/L208A/L212A (triple) C162S,C182S,L201A,L208A,L212A (UniProt A8QW55); details: blue light; EMSA: 5% polyacrylamide gel, 25 C, dark or blue light 5 W/m2; recombinant protein; residues 113-348; label: Alexa Fluor647 (EMSA), biotin (QCM)
T3 sequence (looked up): T1 sequence (looked up) with L89A, L96A, L100A, V107F

[4] = target: T4, PZ L303A C162S,C182S,L303A (UniProt A8QW55); details: EMSA: 5% polyacrylamide gel, 25 C, dark or blue light 5 W/m2, recombinant protein, residues 113-348, label: Alexa Fluor647 (EMSA), biotin (QCM)
T4 sequence (looked up): T1 sequence (looked up) with V107F, L191A

[5] = target: T5, PZ V314A C162S,C182S,V314A (UniProt A8QW55); details: blue light; EMSA: 5% polyacrylamide gel, 25 C, dark or blue light 5 W/m2; recombinant protein; residues 113-348; label: Alexa Fluor647 (EMSA), biotin (QCM)
T5 sequence (looked up): T1 sequence (looked up) with V107F, V202A

[6] = target: T6, PZ V316A C162S,C182S,V316A (UniProt A8QW55); details: blue light; EMSA: 5% polyacrylamide gel, 25 C, dark or blue light 5 W/m2; recombinant protein; residues 113-348; label: Alexa Fluor647 (EMSA), biotin (QCM)
T6 sequence (looked up): T1 sequence (looked up) with V107F, V204A

GCTGTCTGACGTCAGACAGC (double strand) [dsApo]
binding result [1]: binds
binding result ([2]; blue light, high EC50): binds more weakly
binding result ([2]; dark state): binds
binding result [3]: binds
binding result ([4]; blue light, high EC50): binds more weakly
binding result ([4]; dark state): binds
binding result [5]: binds
binding result [6]: binds
